Results taken from patent US20150342893A1 (SIGMOID PHARMA LIMITED, priority 2014, published 2015).
For some of these results: At least one read-out could not be matched to a standard name with certainty. For some of these results: At least one compound was matched to its structure with a doubt left.

Tests used:
[1] = In-vitro dissolution testing in purified water (USP type II paddles, 75 rpm, 37° C.); format: physicochemical
[2] = Solubilisation measurements of celecoxib in vehicles (oils, surfactants, co-solvents); format: physicochemical
Protocol: Solubilisation studies were performed using a wide range of vehicles consisting of oils, surfactants and co-solvents. The vehicles used were Kolliphor® HS 15, Transcutol® P, Kolliphor® EL, Miglyol® 810N, Tween® 20 and Capryol® 90.
Celecoxib was added to measured quantities of the vehicles (excipients) in glass vials. These mixtures were stirred at room temperature on a magnetic stirrer; as an exception, the solubilisation measurements were performed at elevated temperatures in respect of vehicles which were solid at room temperature.

HT29 cells = test: Annexin V-PE / 7-AAD cell viability and apoptosis assay by flow cytometry; format: cell-based, human; conditions: 50 μM in cell culture media
Protocol: HT29 is a COX-2 positive human colorectal adenocarcinoma cell line and is in particular a model for adenocarcinoma, especially COX-2 positive adenocarcinoma. The HT29 cell line was grown in McCoy's 5A modified medium supplemented with 1.5 mM L-glutamine, 10% FBS (fetal bovine serum) and 1% penicillin/streptomycin. The cells were grown in a humidified atmosphere containing 5% CO2.
Two control groups were employed, one which involved no treatment (referred to as media) and the other which involved treatment with DMSO alone. Cell viability and the onset of apoptosis was monitored using an Annexin-PE Apoptosis Detection Kit which contains recombinant Annexin V-fluorochrome phycoerythrin (PE) conjugate and the vital dye 7-amino-actinomycin (7-AAD) followed by flow cytometry on a FACSCalibur system using CellQest software (BD Biosciences, USA) . Data for at least 10,000 cells were collected for each analysis made and two-dimensional plots of 7-AAD versus PE were generated.

[3] = poorly soluble, highly permeable drug; cited from earlier work

SMILES: Cc1ccc(-c2cc(C(F)(F)F)nn2-c2ccc(S(N)(=O)=O)cc2)cc1 [Celecoxib, celecoxib]
- % Released ([1]; time 0 hrs): 0%
- % Released ([1]; time 1 hrs): 1%
- % Released ([1]; time 2 hrs): 3%
- % Released ([1]; time 4 hrs): 4%
- % Released ([1]; time 6 hrs): 4%
- solubilisation capacity for celecoxib, Kolliphor EL ([2]; vehicle Kolliphor EL): 264 to 330 mg/g
- solubilisation capacity for celecoxib, polyethylene glycol 660 hydroxystearate (Kolliphor HS-15) ([2]; vehicle Kolliphor HS-15): 320 to 356 mg/g
- solubilisation capacity for celecoxib, polysorbate 20 (Tween 20) ([2]; vehicle Tween 20): 233 to 269 mg/g
- appearance of the cell culture media following treatment with the drug (HT29 cells): cloudy
- class of the Biopharmaceutical Classification System [3]: class II
